Reference: article PMC8934662
These are yes or no findings as the source states them, for the method shown. In cells and extracts the contact can be indirect. Some binding calls cover weakened binding; strength is not graded here. For some assays here: Tags and fused reporters may be left off the sequences shown.

The chains behind the UniProt entries cited, without tags or fusion partners.
UniProt Q9D0L8: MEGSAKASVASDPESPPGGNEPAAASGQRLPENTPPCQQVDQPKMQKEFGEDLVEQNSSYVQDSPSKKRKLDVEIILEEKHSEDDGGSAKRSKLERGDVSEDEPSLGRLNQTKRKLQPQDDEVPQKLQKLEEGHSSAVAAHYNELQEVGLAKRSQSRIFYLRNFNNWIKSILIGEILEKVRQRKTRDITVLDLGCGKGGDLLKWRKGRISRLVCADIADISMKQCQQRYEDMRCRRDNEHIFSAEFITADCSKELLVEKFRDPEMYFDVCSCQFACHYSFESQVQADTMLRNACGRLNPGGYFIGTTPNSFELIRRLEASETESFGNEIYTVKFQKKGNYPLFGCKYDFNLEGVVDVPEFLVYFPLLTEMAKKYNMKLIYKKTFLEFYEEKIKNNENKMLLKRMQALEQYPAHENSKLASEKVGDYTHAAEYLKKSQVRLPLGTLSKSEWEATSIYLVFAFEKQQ
UniProt O35286: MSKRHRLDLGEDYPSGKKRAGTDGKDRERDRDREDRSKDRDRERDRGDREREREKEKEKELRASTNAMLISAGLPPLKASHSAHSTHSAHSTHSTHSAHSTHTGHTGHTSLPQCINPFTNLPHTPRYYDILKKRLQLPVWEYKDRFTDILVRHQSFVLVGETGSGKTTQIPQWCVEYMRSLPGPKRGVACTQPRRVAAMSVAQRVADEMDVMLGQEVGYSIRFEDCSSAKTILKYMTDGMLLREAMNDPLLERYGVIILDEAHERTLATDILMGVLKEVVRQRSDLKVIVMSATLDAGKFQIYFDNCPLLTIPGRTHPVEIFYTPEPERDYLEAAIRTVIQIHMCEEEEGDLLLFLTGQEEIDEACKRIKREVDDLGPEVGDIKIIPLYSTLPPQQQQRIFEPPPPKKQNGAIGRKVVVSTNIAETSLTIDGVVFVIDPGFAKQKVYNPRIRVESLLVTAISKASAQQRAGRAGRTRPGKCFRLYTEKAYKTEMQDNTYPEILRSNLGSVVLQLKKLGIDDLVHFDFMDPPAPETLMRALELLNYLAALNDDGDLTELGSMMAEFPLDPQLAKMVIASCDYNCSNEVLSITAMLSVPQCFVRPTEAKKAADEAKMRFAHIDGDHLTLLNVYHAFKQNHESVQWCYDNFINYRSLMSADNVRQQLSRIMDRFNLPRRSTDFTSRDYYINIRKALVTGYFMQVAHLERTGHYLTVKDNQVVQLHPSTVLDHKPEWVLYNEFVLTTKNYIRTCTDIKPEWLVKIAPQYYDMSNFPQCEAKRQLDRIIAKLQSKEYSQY
UniProt Q9CQY2: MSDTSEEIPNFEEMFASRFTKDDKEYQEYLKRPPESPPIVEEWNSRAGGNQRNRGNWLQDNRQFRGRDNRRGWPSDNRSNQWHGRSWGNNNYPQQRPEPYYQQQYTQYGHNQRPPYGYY

Assays:
[1] = target: T1, HA-GFP-CMTR1 (mouse (endogenous gene in murine ESCs)) (UniProt Q9DBC3); experiment: co-IP; immunoprecipitation from lysates of HA-GFP knock-in murine ESCs, western blot; the methods describe IP with anti-RNMT or anti-CMTR1 antibody and protein G Dynabeads, and IP with anti-HA magnetic beads; which was used here is not told
T1 sequence: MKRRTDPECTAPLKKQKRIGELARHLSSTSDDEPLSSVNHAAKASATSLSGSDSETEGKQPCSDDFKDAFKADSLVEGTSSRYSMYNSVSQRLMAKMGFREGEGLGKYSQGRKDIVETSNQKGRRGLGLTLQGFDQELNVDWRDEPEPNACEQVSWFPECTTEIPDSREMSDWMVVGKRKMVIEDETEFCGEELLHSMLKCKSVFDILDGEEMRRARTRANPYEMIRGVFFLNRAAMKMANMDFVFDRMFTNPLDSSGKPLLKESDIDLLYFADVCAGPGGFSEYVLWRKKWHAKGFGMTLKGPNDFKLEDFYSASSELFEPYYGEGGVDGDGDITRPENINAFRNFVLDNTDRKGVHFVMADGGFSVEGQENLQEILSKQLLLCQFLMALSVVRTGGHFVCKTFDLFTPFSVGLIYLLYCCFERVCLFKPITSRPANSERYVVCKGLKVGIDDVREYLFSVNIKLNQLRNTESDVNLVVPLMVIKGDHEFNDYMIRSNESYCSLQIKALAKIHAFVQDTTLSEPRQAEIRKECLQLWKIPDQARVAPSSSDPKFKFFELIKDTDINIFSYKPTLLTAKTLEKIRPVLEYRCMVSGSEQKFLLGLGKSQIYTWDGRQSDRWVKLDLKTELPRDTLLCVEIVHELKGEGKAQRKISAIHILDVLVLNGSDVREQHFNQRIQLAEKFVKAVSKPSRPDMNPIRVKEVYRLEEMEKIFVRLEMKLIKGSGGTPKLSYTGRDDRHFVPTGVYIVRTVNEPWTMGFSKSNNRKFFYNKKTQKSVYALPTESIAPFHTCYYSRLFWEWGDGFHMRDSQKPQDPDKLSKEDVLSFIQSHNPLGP

[2] = target: HA-GFP-RNMT (mouse (endogenous gene in murine ESCs)) (UniProt Q9D0L8); experiment: as above

binding [1]	binding [2]	Substance
binds weakly		DHX15 (from UniProt O35286 1-795) (enzyme)
	binds	RAM (from UniProt Q9CQY2 1-119)
